No constants are given. Whether binding was seen depends on the method and setting. For some of these results: Binding seen in cells or lysates may run through a third protein. Some entries that bind do so weakly or less than the wild type.
Tests used:
[1] = molecular target: GFP-p80 250-655 aa (C-terminal region) (human) (UniProt Q9BVA0); assay: co-IP; anti-GFP antibody (JL-8) on protein G-Sepharose, lysates of MEF cells overexpressing GFP or GFP-p80 constructs; 20 mM Tris pH 8.0, 0.1 M KCl, 0.2% Triton X-100; 2 h; Western blot
[2] = molecular target: GFP-p80, full-length human katanin p80 (human) (UniProt Q9BVA0); assay: as above
GST-NuMA-FLAG (human) = GST-NuMA-FLAG (human) (UniProt Q14980); assay: pull-down; 0.2 μM GST-NuMA-FLAG prebound to glutathione Sepharose, incubated with 0.5 μM recombinant p80 or p80 fragments; both purified

The chains behind the UniProt entries cited, without tags or fusion partners. Where a name states a change or a piece, a line headed by the entry shows the natural chain unless it says otherwise. Residues count along the entry.
UniProt Q9BVA0: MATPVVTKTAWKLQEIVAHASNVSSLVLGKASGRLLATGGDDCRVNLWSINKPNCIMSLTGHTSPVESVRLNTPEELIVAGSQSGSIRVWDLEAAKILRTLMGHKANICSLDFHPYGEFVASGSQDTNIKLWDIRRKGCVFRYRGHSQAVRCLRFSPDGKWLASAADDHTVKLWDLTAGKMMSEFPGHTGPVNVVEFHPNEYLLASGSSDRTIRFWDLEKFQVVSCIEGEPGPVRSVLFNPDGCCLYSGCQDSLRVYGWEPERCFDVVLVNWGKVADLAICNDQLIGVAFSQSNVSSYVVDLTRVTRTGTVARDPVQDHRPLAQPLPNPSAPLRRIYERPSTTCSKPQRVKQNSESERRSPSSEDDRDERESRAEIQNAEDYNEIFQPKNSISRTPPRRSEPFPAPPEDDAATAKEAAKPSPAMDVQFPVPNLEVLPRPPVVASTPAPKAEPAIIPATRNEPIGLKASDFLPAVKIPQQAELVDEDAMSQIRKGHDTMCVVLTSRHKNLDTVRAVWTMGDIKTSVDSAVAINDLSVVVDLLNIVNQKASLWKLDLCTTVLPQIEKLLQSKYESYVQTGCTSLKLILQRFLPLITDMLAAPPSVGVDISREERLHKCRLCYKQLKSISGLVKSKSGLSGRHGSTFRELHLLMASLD
GFP-p80 250-655 aa (C-terminal region): residues 250-655 of Q9BVA0
UniProt Q14980: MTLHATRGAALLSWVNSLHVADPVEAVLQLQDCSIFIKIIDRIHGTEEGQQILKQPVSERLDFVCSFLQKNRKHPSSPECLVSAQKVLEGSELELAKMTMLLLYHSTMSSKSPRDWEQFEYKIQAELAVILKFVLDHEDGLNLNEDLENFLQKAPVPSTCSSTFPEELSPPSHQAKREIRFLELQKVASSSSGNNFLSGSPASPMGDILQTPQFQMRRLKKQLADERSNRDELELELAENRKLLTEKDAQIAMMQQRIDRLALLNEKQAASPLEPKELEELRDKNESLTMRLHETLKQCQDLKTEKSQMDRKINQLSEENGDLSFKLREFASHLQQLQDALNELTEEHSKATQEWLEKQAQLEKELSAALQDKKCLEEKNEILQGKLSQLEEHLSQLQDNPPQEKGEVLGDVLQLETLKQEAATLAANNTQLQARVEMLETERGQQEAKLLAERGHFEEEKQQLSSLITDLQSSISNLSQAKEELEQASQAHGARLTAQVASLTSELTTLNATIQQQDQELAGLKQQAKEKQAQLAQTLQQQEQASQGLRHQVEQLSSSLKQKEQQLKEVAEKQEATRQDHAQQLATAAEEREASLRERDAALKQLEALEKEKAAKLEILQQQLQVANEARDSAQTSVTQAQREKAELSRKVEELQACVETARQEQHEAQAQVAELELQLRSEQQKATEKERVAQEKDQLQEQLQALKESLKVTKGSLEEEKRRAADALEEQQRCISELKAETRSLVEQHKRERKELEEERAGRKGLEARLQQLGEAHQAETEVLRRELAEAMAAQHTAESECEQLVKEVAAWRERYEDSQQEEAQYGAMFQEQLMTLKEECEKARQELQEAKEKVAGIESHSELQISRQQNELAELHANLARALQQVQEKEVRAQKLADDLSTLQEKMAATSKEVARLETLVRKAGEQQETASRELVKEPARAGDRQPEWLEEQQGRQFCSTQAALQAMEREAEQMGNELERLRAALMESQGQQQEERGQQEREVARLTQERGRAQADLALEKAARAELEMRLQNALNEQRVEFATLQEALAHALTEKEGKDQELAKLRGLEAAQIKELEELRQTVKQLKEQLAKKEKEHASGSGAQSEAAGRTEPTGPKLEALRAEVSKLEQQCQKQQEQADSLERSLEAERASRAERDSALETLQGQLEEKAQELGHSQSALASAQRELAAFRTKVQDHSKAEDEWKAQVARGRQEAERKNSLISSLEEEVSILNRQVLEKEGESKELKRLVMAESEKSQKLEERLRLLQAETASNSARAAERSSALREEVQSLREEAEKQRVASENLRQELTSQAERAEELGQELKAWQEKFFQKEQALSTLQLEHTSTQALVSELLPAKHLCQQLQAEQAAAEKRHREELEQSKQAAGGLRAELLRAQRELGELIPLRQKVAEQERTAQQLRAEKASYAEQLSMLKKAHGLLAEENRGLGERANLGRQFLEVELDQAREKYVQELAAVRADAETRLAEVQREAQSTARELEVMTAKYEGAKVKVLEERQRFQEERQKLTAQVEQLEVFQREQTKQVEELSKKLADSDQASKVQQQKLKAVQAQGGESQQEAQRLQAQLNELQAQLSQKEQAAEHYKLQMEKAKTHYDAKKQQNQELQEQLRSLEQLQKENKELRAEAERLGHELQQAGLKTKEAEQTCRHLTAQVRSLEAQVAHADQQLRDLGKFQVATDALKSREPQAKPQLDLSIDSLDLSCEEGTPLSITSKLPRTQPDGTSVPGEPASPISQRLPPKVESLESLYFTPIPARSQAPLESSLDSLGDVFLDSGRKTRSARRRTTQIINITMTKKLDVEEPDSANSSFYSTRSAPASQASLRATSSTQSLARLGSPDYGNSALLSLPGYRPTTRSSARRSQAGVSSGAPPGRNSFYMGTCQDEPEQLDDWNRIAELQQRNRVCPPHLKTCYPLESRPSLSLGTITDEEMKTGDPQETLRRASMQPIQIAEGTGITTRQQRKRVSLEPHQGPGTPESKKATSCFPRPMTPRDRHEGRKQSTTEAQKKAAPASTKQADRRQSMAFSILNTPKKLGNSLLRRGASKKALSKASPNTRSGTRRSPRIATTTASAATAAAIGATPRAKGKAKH
UniProt E9Q7G0: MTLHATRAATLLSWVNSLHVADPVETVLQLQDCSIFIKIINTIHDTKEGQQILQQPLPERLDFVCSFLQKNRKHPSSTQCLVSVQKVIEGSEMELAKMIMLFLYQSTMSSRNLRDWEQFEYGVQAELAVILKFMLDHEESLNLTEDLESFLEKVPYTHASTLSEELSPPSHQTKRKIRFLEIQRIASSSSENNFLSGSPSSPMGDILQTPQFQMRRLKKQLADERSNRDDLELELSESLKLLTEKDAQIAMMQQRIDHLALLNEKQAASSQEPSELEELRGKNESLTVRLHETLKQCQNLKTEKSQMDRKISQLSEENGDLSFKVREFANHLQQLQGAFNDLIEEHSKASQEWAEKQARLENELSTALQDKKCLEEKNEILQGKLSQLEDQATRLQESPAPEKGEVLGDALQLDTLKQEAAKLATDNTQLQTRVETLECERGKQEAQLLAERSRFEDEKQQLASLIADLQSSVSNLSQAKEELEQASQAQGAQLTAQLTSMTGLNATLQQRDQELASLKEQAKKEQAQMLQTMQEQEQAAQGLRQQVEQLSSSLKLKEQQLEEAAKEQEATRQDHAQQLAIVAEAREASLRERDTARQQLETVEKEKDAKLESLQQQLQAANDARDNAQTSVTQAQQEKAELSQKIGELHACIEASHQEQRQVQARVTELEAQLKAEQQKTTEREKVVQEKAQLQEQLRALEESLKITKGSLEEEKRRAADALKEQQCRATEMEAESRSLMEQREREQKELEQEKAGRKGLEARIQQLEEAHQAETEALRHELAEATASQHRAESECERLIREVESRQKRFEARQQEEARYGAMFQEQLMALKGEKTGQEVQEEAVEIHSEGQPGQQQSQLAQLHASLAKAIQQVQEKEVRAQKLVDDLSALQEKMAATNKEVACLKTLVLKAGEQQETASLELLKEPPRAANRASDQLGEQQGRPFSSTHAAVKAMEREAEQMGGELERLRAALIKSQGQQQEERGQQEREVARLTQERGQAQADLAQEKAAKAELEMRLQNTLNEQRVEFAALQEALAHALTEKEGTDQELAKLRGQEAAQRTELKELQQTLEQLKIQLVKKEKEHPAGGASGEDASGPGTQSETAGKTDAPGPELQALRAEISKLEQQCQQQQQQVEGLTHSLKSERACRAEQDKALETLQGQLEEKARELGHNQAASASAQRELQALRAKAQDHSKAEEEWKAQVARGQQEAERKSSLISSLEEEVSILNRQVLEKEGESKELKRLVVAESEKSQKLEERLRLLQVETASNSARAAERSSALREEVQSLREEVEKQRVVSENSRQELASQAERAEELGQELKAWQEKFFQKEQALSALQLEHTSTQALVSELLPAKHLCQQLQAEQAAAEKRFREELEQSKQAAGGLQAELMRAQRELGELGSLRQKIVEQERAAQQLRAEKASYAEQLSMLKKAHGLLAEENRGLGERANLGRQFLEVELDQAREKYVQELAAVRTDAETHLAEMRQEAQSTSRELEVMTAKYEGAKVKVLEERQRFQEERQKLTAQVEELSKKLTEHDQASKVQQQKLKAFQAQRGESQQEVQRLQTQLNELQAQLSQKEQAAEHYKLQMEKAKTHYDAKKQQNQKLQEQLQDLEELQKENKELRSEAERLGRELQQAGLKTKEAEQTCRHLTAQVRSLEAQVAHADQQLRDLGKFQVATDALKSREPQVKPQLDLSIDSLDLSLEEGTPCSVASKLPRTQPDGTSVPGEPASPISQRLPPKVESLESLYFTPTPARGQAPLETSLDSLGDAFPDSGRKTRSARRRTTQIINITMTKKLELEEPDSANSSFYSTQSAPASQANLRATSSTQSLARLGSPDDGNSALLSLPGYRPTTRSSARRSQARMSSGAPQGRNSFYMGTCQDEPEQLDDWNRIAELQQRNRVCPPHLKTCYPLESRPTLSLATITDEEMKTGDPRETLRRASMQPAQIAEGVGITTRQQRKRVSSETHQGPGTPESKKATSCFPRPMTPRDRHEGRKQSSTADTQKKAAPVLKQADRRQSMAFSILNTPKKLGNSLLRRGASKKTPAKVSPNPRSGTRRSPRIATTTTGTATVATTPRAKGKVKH

Substance | binding [1] | binding [2] | binding (GST-NuMA-FLAG (human))
NuMA (nuclear mitotic apparatus protein), endogenous mouse (from UniProt E9Q7G0 1-2094) | binds | binds | 
recombinant full-length p80 (GST removed) (from UniProt Q9BVA0 1-655) |  |  | binds
recombinant p80 326-655 aa (GST removed) (from UniProt Q9BVA0 326-655) (domain or fragment) |  |  | binds
